± gives the standard deviation of the averaged measurements. The list shows a part of the results. This data set is noisy: repeats of one test often differ as much as different tests do.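 Cells were counted by imaging DAPI-stained nuclei, and cells lacking phalloidin-stained cytoplasm were excluded as dead. Each well's count was divided by the median count of the vehicle wells on the same plate, and values were averaged over two replicate plates.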
System: OVCAR8
Experiment: cell count relative to DMSO vehicle (fold change); higher = more surviving senescent cells (less killing)
Conditions: senescence inducer: cisplatin 10 µM 48 h, then 6 d recovery (CP senescent), exposure time 24 h

Structure (SMILES) | cell count (compound dose 1 µM) | cell count (compound dose 5 µM)
COc1cc(/C=C/c2ccc(NC(=O)/C=C/c3cc(OC)c(OC)c(OC)c3)cc2)cc(OC)c1 | 1.4 ± 0.032 | 1.47 ± 0.12
CNC(=O)c1cc(Oc2ccc(NC(=O)Nc3cc(C(C)(C)C)nn3-c3ccc4ncccc4c3)c(F)c2)ccn1 [Rebastinib (DCC-2036)] | 1.3 ± 0.013 | 0.957 ± 0.74
CC(C)=CCc1c(O)ccc(C(=O)/C=C/c2ccc(O)cc2)c1O [Isobavachalcone] | 0.842 ± 0.049 | 0.51 ± 0.35
COc1ccc(-c2cc(=O)c3c(O)c(OC)c(O[C@@H]4O[C@H](CO[C@@H]5O[C@@H](C)[C@H](O)[C@@H](O)[C@H]5O)[C@@H](O)[C@H](O)[C@H]4O)cc3o2)cc1 | 0.971 ± 0.057 | 0.683 ± 0.086
O=C1N=C(N2CCN(CCO)CC2)S/C1=C\c1ccc(-c2ccccc2)cc1 | 1.11 ± 0.17 | 1.07 ± 0.29
CC1(C)C=Cc2cc(CCn3c4ccccc4c4ccccc43)cc(C=O)c2O1 | 0.669 ± 0.098 | 0.42 ± 0.068
COc1cc2c(=O)c(-c3ccc(O)cc3)coc2cc1O [Glycitein] | 1.06 ± 0.19 | 0.839 ± 0.06
C/C=C1\C(=O)C[C@H]2[C@@H]3CCC4=CC(=O)CC[C@]4(C)[C@H]3CC[C@]12C [Guggulsterone] | 1.02 ± 0.012 | 0.841 ± 0.016
CC(C)c1cc2c(cc1S(=O)(=O)O)[C@@]1(C)CCC[C@@](C)(C(=O)O)[C@@H]1CC2 [Ecabet (sodium)] | 1.05 ± 0.031 | 1.21 ± 0.26
Nc1nc2[nH]cnc2c(=S)[nH]1 | 0.795 ± 0.23 | 0.636 ± 0.22
O=C(/C=C/c1ccc(O)c(O)c1)O[C@@H]1[C@H](O)C[C@@](O)(C(=O)O)C[C@H]1OC(=O)/C=C/c1ccc(O)c(O)c1 (stereo in doubt) [3,4-Dicaffeoylquinic acid] | 0.859 ± 0.18 | 1.06 ± 0.23
CC(NC(=O)C(Cc1ccccc1)NC(=O)OCc1ccccc1)C(=O)CF (stereo not drawn) | 1.29 ± 0.072 | 1.09 ± 0.026
C=CCc1cccc(/C=N/NC(=O)CN2CCN(Cc3ccccc3)CC2)c1O | 0.726 ± 0.011 | 0.905 ± 0.018
Cc1cc(C)c(-c2n[nH]c(C)c2C)cc1C(=O)N1CC(c2ccc(C#N)cc2)C1 | 1.15 ± 0.17 | 1.22 ± 0.43
COc1cc2c(N3CCN(C(=O)Nc4ccc(OC(C)C)cc4)CC3)ncnc2cc1OCCCN1CCCCC1 [Tandutinib] | 1.16 ± 0.12 | 1.09 ± 0.19
CC(C(=O)O)c1ccc(-c2ccccc2)c(F)c1 (stereo not drawn) | 1.06 ± 0.2 | 1.15 ± 0.25
CN[C@@H](C)C(=O)N[C@H]1CN(C(=O)CC(C)C)CC[C@H]2CC[C@@H](C(=O)NC(c3ccccc3)c3ccccc3)N2C1=O [Xevinapant] | 0.738 ± 0.13 | 0.437 ± 0.045

Structure (SMILES) | cell count (compound dose 1 µM) | cell count (compound dose 5 µM)
Cc1cc(=O)[nH]c(=S)[nH]1 | 0.933 ± 0.22 | 0.608 ± 0.16
CC[C@]1(O)C[C@H]2CN(CCc3c([nH]c4ccccc34)[C@@](C(=O)OC)(c3cc4c(cc3OC)N(C=O)[C@H]3[C@@](O)(C(=O)OC)[C@H](OC(C)=O)[C@]5(CC)C=CCN6CC[C@]43[C@@H]65)C2)C1 [Vincristine (sulfate)] | 0.793 ± 0.069 | 0.734 ± 0.069
CC(=O)Nc1ccc(C(=O)Nc2ccc(F)cc2N)cc1 | 0.901 ± 0.053 | 0.957 ± 0.023
Oc1ccc(/C=C/c2cc(O)cc(O)c2)cc1 | 0.773 ± 0.088 | 0.745 ± 0.18
CCN(CC)CCNC(=O)c1c(C)[nH]c(/C=C2\C(=O)Nc3ccc(F)cc32)c1C [Sunitinib] | 1.23 ± 0.27 | 0.803 ± 0.29
CCN(CC)CCNC(=O)c1c(C)[nH]c(/C=C2\C(=O)Nc3ccc(F)cc32)c1C [Sunitinib Malate] | 1.22 ± 0.044 | 0.498 ± 0.085
COc1cc([C@@H]2c3cc4c(cc3[C@@H](O[C@@H]3O[C@@H]5CO[C@@H](C)O[C@H]5[C@H](O)[C@H]3O)[C@H]3COC(=O)[C@H]23)OCO4)cc(OC)c1O [Etoposide] | 1.22 ± 0.19 | 0.9125 ± 0.0021
CN(C)C(=S)NN=C(c1ccccn1)c1ccccn1 | 0.773 ± 0.12 | 0.929 ± 0.046
Cc1cc(O)c(-c2ccc([C@@H](C)CN)cc2)c2c1[nH]c(=O)c1sccc12 | 0.734 ± 0.11 | 0.902 ± 0.013
OC[C@H]1O[C@@H](Oc2cc(O)cc(/C=C/c3ccc(O)cc3)c2)[C@H](O)[C@@H](O)[C@@H]1O [Polydatin] | 1.19 ± 0.09 | 0.945 ± 0.17
CCC(C)(C)C(=O)N(O)Cc1ccccc1 | 1.24 ± 0.19 | 0.964 ± 0.025
COc1ccc(F)c(F)c1C(=O)c1cnc(NC2CCN(S(C)(=O)=O)CC2)nc1N | 1.22 ± 0.097 | 0.626 ± 0.11
Cc1ccc(C(C)C)cc1O [Carvacrol] | 1.02 ± 0.068 | 0.994 ± 0.025
CCN1CCN(Cc2ccc(NC(=O)c3ccc(C)c(Oc4ncnc5cc(OC)c(OC)cc45)c3)cc2C(F)(F)F)CC1 | 0.952 ± 0.061 | 0.638 ± 0.02
O=C1OCCN1/N=C/c1ccc([N+](=O)[O-])o1 [Furazolidone] | 1.19 ± 0.15 | 0.871 ± 0.018
Cc1c(O)c(=O)ccn1C | 1.16 ± 0.15 | 0.822 ± 0.064
O=S(=O)(O)c1cc(O)ccc1O [Calcium dobesilate] | 1.04 ± 0.12 | 0.929 ± 0.092

Not a retest: an excerpt of the list.
Structure (SMILES) | cell count (compound dose 1 µM) | cell count (compound dose 5 µM)
CC(=O)Nc1ccc(C(=O)Nc2ccc(F)cc2N)cc1 | 0.901 ± 0.053 | 0.957 ± 0.023
Oc1ccc(/C=C/c2cc(O)cc(O)c2)cc1 | 0.773 ± 0.088 | 0.745 ± 0.18
CCN(CC)CCNC(=O)c1c(C)[nH]c(/C=C2\C(=O)Nc3ccc(F)cc32)c1C [Sunitinib] | 1.23 ± 0.27 | 0.803 ± 0.29
CCN(CC)CCNC(=O)c1c(C)[nH]c(/C=C2\C(=O)Nc3ccc(F)cc32)c1C [Sunitinib Malate] | 1.22 ± 0.044 | 0.498 ± 0.085
COc1cc([C@@H]2c3cc4c(cc3[C@@H](O[C@@H]3O[C@@H]5CO[C@@H](C)O[C@H]5[C@H](O)[C@H]3O)[C@H]3COC(=O)[C@H]23)OCO4)cc(OC)c1O [Etoposide] | 1.22 ± 0.19 | 0.9125 ± 0.0021
CN(C)C(=S)NN=C(c1ccccn1)c1ccccn1 | 0.773 ± 0.12 | 0.929 ± 0.046
Cc1cc(O)c(-c2ccc([C@@H](C)CN)cc2)c2c1[nH]c(=O)c1sccc12 | 0.734 ± 0.11 | 0.902 ± 0.013
OC[C@H]1O[C@@H](Oc2cc(O)cc(/C=C/c3ccc(O)cc3)c2)[C@H](O)[C@@H](O)[C@@H]1O [Polydatin] | 1.19 ± 0.09 | 0.945 ± 0.17

— the supplement of paper PMC12462457
